{"source": "the supplement of paper PMC8728848", "binders": {"B1": {"name": "C-Reactive Protein (Homo sapiens), P02741 (protein)", "chain": "MEKLLCFLVLTSLSHAFGQTDMSRKAFVFPKESDTSYVSLKAPLTKPLKAFTVCLHFYTELSSTRGYSIFSYATKRQDNEILIFWSKDIGYSFTVGGSEILFEVPEVTVAPVHICTSWESASGIVEFWVDGKPRVRKSLKKGYTVGAEASIILGQEQDSFGGNFEGSQSLVGDIGNVNMWDFVLSPDEINTIYLGGPFSPNVLNWRALKYEVQGEVFTKPQLWP"}}, "test_in_all_cases": "glycan array binding signal (z-score within array); higher = stronger binding", "conditions_in_all_cases": "glycan notation: IUPAC condensed, linker removed", "key": {"[1]": {"biological_target": "Neu5Ac(a2-3)GalNAc(b1-4)GlcNAc", "method_in_brief": "(§1)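 From the Consortium for Functional Glycomics database, 3228 arrays were curated, keeping only those whose protein sequence was available. Binding is given as a within-array Z-score averaged across arrays sharing a protein sequence and across linkers. Negative Z-scores can be read as non-binding.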"}, "[2]": {"biological_target": "Neu5Ac(a2-3)[GalNAc(b1-4)]Gal(b1-4)Glc", "method_in_brief": "as §1"}, "[3]": {"biological_target": "Neu5Ac(a2-3)[GalNAc(b1-4)]Gal(b1-4)GlcNAc", "method_in_brief": "as §1"}, "[4]": {"biological_target": "Neu5Ac(a2-3)[Neu5Ac(a2-6)]GalNAc", "method_in_brief": "as §1"}, "[5]": {"biological_target": "Neu5Ac(a2-6)Gal(b1-4)GlcNAc", "method_in_brief": "as §1"}, "[6]": {"biological_target": "Neu5Ac(a2-6)Gal(b1-4)GlcNAc(b1-2)Man(a1-3)[Neu5Ac(a2-6)Gal(b1-4)GlcNAc(b1-2)Man(a1-6)]Man(b1-4)GlcNAc(b1-4)GlcNAc", "method_in_brief": "as §1"}, "[7]": {"biological_target": "Neu5Ac(a2-6)Gal(b1-4)GlcNAc(b1-3)Gal(b1-4)GlcNAc", "method_in_brief": "as §1"}, "[8]": {"biological_target": "Neu5Ac(a2-6)Gal(b1-4)GlcNAc(b1-3)Gal(b1-4)[Fuc(a1-3)]GlcNAc(b1-3)Gal(b1-4)[Fuc(a1-3)]GlcNAc", "method_in_brief": "as §1"}, "[9]": {"biological_target": "Neu5Ac(a2-6)Gal(b1-4)GlcNAc6S", "method_in_brief": "as §1"}, "[10]": {"biological_target": "Neu5Ac(a2-6)GalNAc", "method_in_brief": "as §1"}, "[11]": {"biological_target": "Neu5Ac(a2-6)GalNAc(b1-4)GlcNAc", "method_in_brief": "as §1"}, "[12]": {"biological_target": "Neu5Ac(a2-8)Neu5Ac", "method_in_brief": "as §1"}, "[13]": {"biological_target": "Neu5Ac(a2-8)Neu5Ac(a2-3)Gal(b1-4)Glc", "method_in_brief": "as §1"}, "[14]": {"biological_target": "Neu5Ac(a2-8)Neu5Ac(a2-3)[GalNAc(b1-4)]Gal(b1-4)Glc", "method_in_brief": "as §1"}, "[15]": {"biological_target": "Neu5Ac(a2-8)Neu5Ac(a2-8)Neu5Ac", "method_in_brief": "as §1"}, "[16]": {"biological_target": "Neu5Ac(a2-8)Neu5Ac(a2-8)Neu5Ac(a2-3)Gal(b1-4)Glc", "method_in_brief": "as §1"}, "[17]": {"biological_target": "Neu5Ac(a2-8)Neu5Ac(a2-8)Neu5Ac(a2-3)[GalNAc(b1-4)]Gal(b1-4)Glc", "method_in_brief": "as §1"}, "[18]": {"biological_target": "Neu5Ac(a2-8)Neu5Ac(a2-8)Neu5Ac(a2-8)Neu5Ac(a2-3)[GalNAc(b1-4)]Gal(b1-4)Glc", "method_in_brief": "as §1"}, "[19]": {"biological_target": "Neu5Ac9Ac(a2-6)Gal(b1-4)GlcNAc", "method_in_brief": "as §1"}, "[20]": {"biological_target": "Neu5Gc(a2-3)Gal(b1-3)GlcNAc", "method_in_brief": "as §1"}, "[21]": {"biological_target": "Neu5Gc(a2-3)Gal(b1-3)[Fuc(a1-4)]GlcNAc", "method_in_brief": "as §1"}, "[22]": {"biological_target": "Neu5Gc(a2-3)Gal(b1-4)Glc", "method_in_brief": "as §1"}, "[23]": {"biological_target": "Neu5Gc(a2-3)Gal(b1-4)GlcNAc", "method_in_brief": "as §1"}, "[24]": {"biological_target": "Neu5Gc(a2-3)Gal(b1-4)[Fuc(a1-4)]GlcNAc", "method_in_brief": "as §1"}, "[25]": {"biological_target": "Neu5Gc(a2-6)Gal(b1-4)GlcNAc", "method_in_brief": "as §1"}, "[26]": {"biological_target": "Neu5Gc(a2-6)GalNAc", "method_in_brief": "as §1"}}, "note": "This is one part of the list.", "data": [{"binder": "B1", "values": [{"measurement": "glycan array binding signal (z-score)", "setting": "[1]", "result": -0.557}, {"measurement": "glycan array binding signal (z-score)", "setting": "[2]", "result": -0.489}, {"measurement": "glycan array binding signal (z-score)", "setting": "[3]", "result": -0.156}, {"measurement": "glycan array binding signal (z-score)", "setting": "[4]", "result": -0.518}, {"measurement": "glycan array binding signal (z-score)", "setting": "[5]", "result": -0.232}, {"measurement": "glycan array binding signal (z-score)", "setting": "[6]", "result": -0.304}, {"measurement": "glycan array binding signal (z-score)", "setting": "[7]", "result": -0.347}, {"measurement": "glycan array binding signal (z-score)", "setting": "[8]", "result": -0.463}, {"measurement": "glycan array binding signal (z-score)", "setting": "[9]", "result": -0.304}, {"measurement": "glycan array binding signal (z-score)", "setting": "[10]", "result": -0.521}, {"measurement": "glycan array binding signal (z-score)", "setting": "[11]", "result": -0.396}, {"measurement": "glycan array binding signal (z-score)", "setting": "[12]", "result": 0.082}, {"measurement": "glycan array binding signal (z-score)", "setting": "[13]", "result": -0.528}, {"measurement": "glycan array binding signal (z-score)", "setting": "[14]", "result": -0.106}, {"measurement": "glycan array binding signal (z-score)", "setting": "[15]", "result": 0.069}, {"measurement": "glycan array binding signal (z-score)", "setting": "[16]", "result": -0.257}, {"measurement": "glycan array binding signal (z-score)", "setting": "[17]", "result": 0.34}, {"measurement": "glycan array binding signal (z-score)", "setting": "[18]", "result": 0.158}, {"measurement": "glycan array binding signal (z-score)", "setting": "[19]", "result": -0.394}, {"measurement": "glycan array binding signal (z-score)", "setting": "[20]", "result": -0.267}, {"measurement": "glycan array binding signal (z-score)", "setting": "[21]", "result": -0.237}, {"measurement": "glycan array binding signal (z-score)", "setting": "[22]", "result": 0.101}, {"measurement": "glycan array binding signal (z-score)", "setting": "[23]", "result": -0.102}, {"measurement": "glycan array binding signal (z-score)", "setting": "[24]", "result": 0.164}, {"measurement": "glycan array binding signal (z-score)", "setting": "[25]", "result": 0.624}, {"measurement": "glycan array binding signal (z-score)", "setting": "[26]", "result": 1.02}]}]}
